Results on one molecule are retold here after publication PMC3984710.

Chains of the proteins cited; added tags and fusions are not shown. Lines headed by an entry give the natural chain unless they say otherwise; changes in a name come on top. A line that says so, or that is headed by a name, gives the form on record, which may keep a tag or linker.
ArntΔQ (Arnt deleted of its transactivation domain, amino acid 1–618) fused to the GAL4 DNA-binding domain (P27540, form named): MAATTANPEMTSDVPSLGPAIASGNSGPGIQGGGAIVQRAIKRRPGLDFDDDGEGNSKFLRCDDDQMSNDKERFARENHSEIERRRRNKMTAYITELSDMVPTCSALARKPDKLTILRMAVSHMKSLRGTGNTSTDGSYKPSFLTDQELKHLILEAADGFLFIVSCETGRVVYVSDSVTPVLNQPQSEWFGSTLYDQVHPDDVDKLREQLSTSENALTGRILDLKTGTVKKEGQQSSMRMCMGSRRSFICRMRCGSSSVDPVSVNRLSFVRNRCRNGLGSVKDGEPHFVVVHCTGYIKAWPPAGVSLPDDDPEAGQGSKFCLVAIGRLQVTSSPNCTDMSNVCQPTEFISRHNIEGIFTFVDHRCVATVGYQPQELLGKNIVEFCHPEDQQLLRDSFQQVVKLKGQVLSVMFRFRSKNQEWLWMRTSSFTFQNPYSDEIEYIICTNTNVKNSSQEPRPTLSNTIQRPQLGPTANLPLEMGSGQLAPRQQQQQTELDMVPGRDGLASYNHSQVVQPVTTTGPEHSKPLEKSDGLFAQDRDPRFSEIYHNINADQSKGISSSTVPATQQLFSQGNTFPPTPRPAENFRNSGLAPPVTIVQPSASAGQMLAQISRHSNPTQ

This experiment deals with ArntΔQ (Arnt deleted of its transactivation domain, amino acid 1–618) fused to the GAL4 DNA-binding domain (human) (UniProt P27540). The experiment is described as follows: two-hybrid; Matchmaker GAL4 Two-hybrid System 3, S. cerevisiae AH109; ArntΔQ on the GAL4 DNA-binding domain (pGBKT7) as bait, Y1 mouse cDNA library on the GAL4 activation domain (pGADT7); growth at high stringency on plates lacking adenine, leucine, tryptophan and histidine; data not shown.

No constants are given. Whether binding was seen depends on the method and setting. Some binding calls cover weakened binding; strength is not graded here. Sequences can lack the tags named with a protein.

B1: C-terminal part of Miz-1 (aa 470–794) fused to the GAL4 activation domain (domain or fragment, UniProt Q60821 470-794)
chain: CGKQFTTSGNLKRHLRIHSGEKPYVCTHCQRQFADPGALQRHVRIHTGEKPCQCVICGKAFTQASSLIAHVRQHTGEKPYVCERCGKRFVQSSQLANHIRHHDNIRPHKCSVCSKAFVNVGDLSKHIIIHTGEKPYLCDKCGRGFNRVDNLRSHVKTVHQGKAGIKILEPEEGGEVSVVTVDDMVTLATEALAATAVTQLTVVPVGAAVTADETEVLKAEISKAVKQVQEEDPNTHILYACDSCGDKFLDANSLAQHVRIHTAQALVMFQTDADFYQQYGPGSTWPAGQMLQAGELVFRPRDGTEGQPTLAESPPTAPDCLPPAE
With B1, the binding result was “binds”.
